{"source": "PubChem BioAssay AID662", "about": "(National Center for Advancing Translational Sciences (NCATS), 2007)", "note": "Several values for one entry are separate records, joined by “and”; a condition that tells them apart may be missing. Identical values can stand only once. Some of the results follow. The main result of the screen is listed elsewhere. These columns were measured beside it and carry no call. The list favours compounds with an active or inconclusive main result. Words in brackets tell the shape of the fitted curve; partial curves, single points and poor fits give uncertain potencies.", "data": [{"test": "Cell signaling CRE-BLA (Fsk stim)", "details": "CHO CRE-bla reporter (cAMP response element driving beta-lactamase), forskolin EC10, beta-lactamase ratio; measured here: 460 nm blue channel", "method_in_brief": "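CHO CRE-bla cells, overnight plating in Opti-MEM with 0.5% dialyzed FBS; cpd titration + EC10 NKH 477, 3 h 37 °C; CCF4 2 h RT; ex 405/em 460 vs 530 ratio → %Activity, AC50.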", "values": [{"smiles": "Cc1ccc(C(=O)Nc2ccccc2C(=O)NC2CCCCC2)cc1S(=O)(=O)N1CCOCC1", "AC50": "1.58 µM [rising, partial curve]"}, {"smiles": "COC(=O)[C@@]1(Cc2ccc(F)cc2)[C@H]2c3cc(C(=O)N(C)C)n(CCN4CCOCC4)c3C[C@H]2CN1C(=O)c1ccccc1", "AC50": "15.8 µM [rising, partial curve]"}, {"smiles": "CN(C(=O)c1ccc2c(=O)n3c(nc2c1)CCCCC3)c1ccccc1", "AC50": "10 µM [rising, partial curve]"}, {"smiles": "c1ccc(-c2nnnn2CCOCCn2nnnc2-c2ccccc2)cc1", "AC50": "5.01 µM [falling, single point]"}, {"smiles": "Cc1cc(=O)c2c(O)c(O)ccc2o1", "AC50": "25.1 µM [rising, partial curve]"}, {"smiles": "COc1ccccc1CNc1ccnc(-c2cccc(C#N)c2)n1", "AC50": "7.94 µM [rising, partial curve]"}, {"smiles": "CCOC(=O)c1c(NC(=O)CSc2nnc(Cc3csc(N)n3)n2C)sc(C)c1C", "AC50": "12.6 µM [rising, single point]"}, {"smiles": "c1csc(-c2csc3nc(CN4CCOCC4)nc(NCc4ccc5c(c4)OCO5)c23)c1", "AC50": "25.1 µM [rising, single point]"}, {"smiles": "COc1cc(-c2nc(-c3ccccn3)no2)cc(OC)c1OC", "AC50": "1.58 µM [rising, partial curve]"}, {"smiles": "Cc1cccc2nc(CSc3nncn3-c3ccccc3)cn12", "AC50": "10 µM [rising, partial curve]"}, {"smiles": "CC(C)Cc1nnc(NC(=O)CCN2C(=O)c3ccccc3C2=O)s1", "AC50": "10 µM [rising, partial curve]"}, {"smiles": "O=C(c1ccc(Cl)cc1)N1CCN(C(=O)c2ccco2)CC1", "AC50": "5.01 µM [rising, single point]"}, {"smiles": "COc1c(O)cc2oc3cc(O)c(CC=C(C)C)c(O)c3c(=O)c2c1CC=C(C)C", "AC50": "31.6 µM [falling, single point]"}, {"smiles": "O=C(Nc1ccc2c(c1)OCCO2)c1ccc(Br)c(S(=O)(=O)N2CCOCC2)c1", "AC50": "1 µM [falling, partial curve, poor fit]"}, {"smiles": "CCCn1c(=S)[nH]c2cc(C(=O)N3CCCC(C(=O)OCC)C3)ccc2c1=O", "note": "(configuration not stated)", "AC50": "10 µM [rising, partial curve]"}, {"smiles": "CCCCNC(=O)C(c1ccc(OCC(=O)OC)c(C(=O)OC)c1)N(Cc1ccccn1)C(=O)CCCCCN1C(=O)NC(c2ccc(-c3ccccc3)cc2)C(C(=O)OCc2ccccc2)=C1C", "note": "(configuration not stated)", "AC50": "3.16 µM [rising, single point]"}, {"smiles": "COc1cccc(Nc2cc(C)nc3nc(C)nn23)c1", "AC50": "10 µM [rising, partial curve]"}, {"smiles": "CCOC(=O)C1CCCN(C(=O)c2cc(=O)c3ccccc3o2)C1", "note": "(configuration not stated)", "AC50": "5.01 µM [falling, single point]"}, {"smiles": "COc1ccc2c(c1)c1nnc(SCC(=O)N3CCCCC3C)nc1n2C", "note": "(configuration not stated)", "AC50": "1.26 µM [rising, full curve]"}, {"smiles": "C/C(Cl)=C\\Cn1c(N2CCCC2)nc2c1c(=O)[nH]c(=O)n2C", "AC50": "1 µM [rising, partial curve]"}, {"smiles": "CCC1Oc2ccc(C)cc2N(Cc2cccc(C)c2)C1=O", "note": "(configuration not stated)", "AC50": "25.1 µM [rising, single point]"}, {"smiles": "NS(=O)(=O)c1ccc(NC(=O)CCc2ccccc2)cc1", "AC50": "25.1 µM [falling, single point]"}, {"smiles": "COc1cccc(-c2cc(C(=O)Nc3cc(OC)c(OC)c(OC)c3)no2)c1", "AC50": "6.31 µM [rising, partial curve, poor fit]"}, {"smiles": "CCOc1cc(C)c(C(C)C)cc1S(=O)(=O)N1CCN(C)CC1", "AC50": "5.01 µM [falling, partial curve]"}, {"smiles": "C=CCn1c(C)cc(C(=O)COC(=O)COc2ccccc2C#N)c1C", "AC50": "0.0501 µM [falling, full curve, poor fit]"}, {"smiles": "C=C1C(=O)O[C@@H]2[C@H]3O[C@]3(C)CCC=C(C)CC[C@@H]12", "AC50": "25.1 µM [falling, single point] and 12.6 µM [falling, partial curve]"}, {"smiles": "CCOC(=O)c1c(C)[nH]c(C(=O)Cn2nnc(-c3ccccc3Cl)n2)c1C", "AC50": "10 µM [rising, partial curve]"}, {"smiles": "CCOC(=O)c1cc2c(=O)n3cccc(C)c3nc2n(Cc2ccco2)c1=NC(=O)c1cccnc1", "AC50": "12.6 µM [rising, partial curve]"}, {"smiles": "CCn1cc(C(=O)N2CCN(C(=O)c3ccco3)CC2)c2cc(OC)c(OC)cc2c1=O", "AC50": "10 µM [rising, partial curve]"}, {"smiles": "O=c1oc2c3c(nn2c2ccccc12)CCCC3", "AC50": "15.8 µM [rising, single point]"}, {"smiles": "CCOc1cc(-c2conc2N)cc(OCC)c1OCC", "AC50": "7.94 µM [rising, partial curve]"}, {"smiles": "Cn1c(=O)c2c(nc(CN3CCC(C(N)=O)CC3)n2CCc2ccccc2)n(C)c1=O", "AC50": "12.6 µM [rising, single point]"}, {"smiles": "COC(=O)c1ccccc1NC(=O)c1sc(N)nc1C", "AC50": "10 µM [rising, partial curve]"}, {"smiles": "CC(C)Nc1nc(NC(C)C)nc(N(C)C(N)=O)n1", "AC50": "10 µM [rising, partial curve]"}, {"smiles": "COCCCN(C(C)=O)c1nc(-c2ccc(OC)cc2)cs1", "AC50": "10 µM [rising, partial curve]"}, {"smiles": "Clc1ccccc1-c1ccc2ncnc(NCCN3CCOCC3)c2c1", "AC50": "6.31 µM [rising, partial curve]"}, {"smiles": "O=S(=O)(NCC(c1cccnc1)N1CCOCC1)c1cccs1", "note": "(configuration not stated)", "AC50": "10 µM [rising, partial curve]"}, {"smiles": "CCNc1ncc2nc(-c3cc(F)cc(F)c3)c(=O)n(-c3ccc(OC)cc3)c2n1", "AC50": "1.58 µM [rising, partial curve]"}, {"smiles": "Cc1nc2oc3ccccc3c(=O)c2c(=O)n1Cc1ccccc1", "AC50": "12.6 µM [rising, single point]"}, {"smiles": "CC1CCN(C(=O)c2scc3c2OCCO3)CC1", "AC50": "25.1 µM [falling, single point]"}, {"smiles": "OCC#CCSc1nnc(-c2ccc(Br)cc2)o1", "AC50": "25.1 µM [rising, single point]"}, {"smiles": "Cc1ccnc(Nc2nc(-c3c(C)nc4sccn34)cs2)c1", "AC50": "25.1 µM [falling, single point]"}]}]}
